According to US5652227A, “Inhibition of the degradation of connective tissue matrix protein components in mammals” (priority 1995, dated 1997):
For at least one compound, name, drawing or mass did not settle the structure.

Columns and labels:
[1] = tested on: purified trypsin-activated human fibroblast-type MMP-1; test: Inhibition of purified human fibroblast collagenase (MMP-1), type I collagen degradation, SDS-PAGE densitometry; assay type: biochemical; conditions: trypsin-activated MMP-1, 1.5 μM type I collagen, 20 hours at 22° C.; values only in FIG. 1
[2] = tested on: purified human MMP-8 activated by APMA; test: Inhibition of purified human neutrophil collagenase (MMP-8), type I collagen degradation, SDS-PAGE densitometry; assay type: biochemical; conditions: APMA-activated MMP-8, 1.5 μM type I collagen, 20 hours at 22° C.; values only in FIG. 3

Q: `O=P(O)(O)C(Cl)(Cl)P(=O)(O)O` [clodronate, (dichloromethylene)bis-phosphonate] was tested. Which “inhibition of MMP-1 activity” value [1] did it give?
A: Its value is “inhibit the activity”.

Q: What about the “inhibition of MMP-8 activity” value [2] of the same molecule?
A: Its value is “inhibit the activity”.
